Measured values as given in paper doi:10.1101/2023.03.28.534447.
These are yes or no findings as the source states them, for the method shown. In cells and extracts the contact can be indirect. Some results given as binding are weak or reduced against the parent protein; the word gives no strength.

Molecular target: T1, SPRING (C12ORF49) (human) (UniProt Q9H741)
T1 sequence: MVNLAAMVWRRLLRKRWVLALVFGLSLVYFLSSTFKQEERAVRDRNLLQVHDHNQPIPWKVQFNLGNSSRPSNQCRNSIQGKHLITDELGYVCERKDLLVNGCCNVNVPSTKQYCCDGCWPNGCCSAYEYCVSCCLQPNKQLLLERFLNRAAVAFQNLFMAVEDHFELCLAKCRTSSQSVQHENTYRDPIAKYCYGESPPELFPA
Assay: co-IP

- binding: binds
B1: S1P mature C-form lacking the pro-domain (enzyme, UniProt Q14703 187-1052)
chain: RAIPRQVAQTLQADVLWQMGYTGANVRVAVFDTGLSEKHPHFKNVKERTNWTNERTLDDGLGHGTFVAGVIASMRECQGFAPDAELHIFRVFTNNQVSYTSWFLDAFNYAILKKIDVLNLSIGGPDFMDHPFVDKVWELTANNVIMVSAIGNDGPLYGTLNNPADQMDVIGVGGIDFEDNIARFSSRGMTTWELPGGYGRMKPDIVTYGAGVRGSGVKGGCRALSGTSVASPVVAGAVTLLVSTVQKRELVNPASMKQALIASARRLPGVNMFEQGHGKLDLLRAYQILNSYKPQASLSPSYIDLTECPYMWPYCSQPIYYGGMPTVVNVTILNGMGVTGRIVDKPDWQPYLPQNGDNIEVAFSYSSVLWPWSGYLAISISVTKKAASWEGIAQGHVMITVASPAETESKNGAEQTSTVKLPIKVKIIPTPPRSKRVLWDQYHNLRYPPGYFPRDNLRMKNDPLDWNGDHIHTNFRDMYQHLRSMGYFVEVLGAPFTCFDASQYGTLLMVDSEEEYFPEEIAKLRRDVDNGLSLVIFSDWYNTSVMRKVKFYDENTRQWWMPDTGGANIPALNELLSVWNMGFSDGLYEGEFTLANHDMYYASGCSIAKFPEDGVVITQTFKDQGLEVLKQETAVVENVPILGLYQIPAEGGGRIVLYGDSNCLDDSHRQKDCFWLLDALLQYTSYGVTPPSLSHSGNRQRPPSGAGSVTPERMEGNHLHRYSKVLEAHLGDPKPRPLPACPRLSWAKPQPLNETAPSNLWKHQKLLSIDLDKVVLPNFRSNRPQVRPLSPGESGAWDIPGGIMPGRYNQEVGQTIPVFAFLGAMVVLAFFVVQINKAKSRPKRRKPRVKRPQLMQQVHPPKTPSV
